Data on 7 molecules can be found in PMC10314921, “Eltrombopag directly activates BAK and induces apoptosis” (Cell Death & Disease, 2023).

Numbering of substitutions follows the chain as printed. In names and notes the source's numbering stands. These are yes or no findings as the source states them, for the method shown. Some entries that bind do so weakly or less than the wild type.

One assay deals with BAKΔTM F157A (human) (UniProt Q16611). Nature of the assay: SEC; BAKΔTM without Eltro (DMSO control), CHAPS buffer, 1 h at 25 °C, Superdex75 on an FPLC, absorbance at 280 nm; oligomers against monomer; both purified.
A further assay has as its target BAKΔTM D160A (human) (UniProt Q16611). Described as above.
The target of another assay is BAKΔTM Y108A (human) (UniProt Q16611). As to the kind of experiment: SEC; BAKΔTM incubated with Eltro (1.7 mM or 3.4 mM for the wild type; 'indicated concentrations' for the mutants), CHAPS buffer, 1 h at 25 °C, Superdex75 on an FPLC, absorbance at 280 nm; oligomers against monomer; both purified.
In the next assay the target is BAKΔTM R156A (human) (UniProt Q16611). As to the kind of experiment: SEC; BAKΔTM incubated with BID BH3 peptide (known BAK activator); size exclusion chromatography, oligomers against monomer; conditions not shown (Supplementary Figs. S1c, S4); both purified.
Another assay has as its target BAKΔTM R156E (human) (UniProt Q16611). The description is as above.
The target in the next assay is BAKΔTM H165A (human) (UniProt Q16611). As to the kind of experiment: SEC; BAKΔTM without Eltro (DMSO control), CHAPS buffer, 1 h at 25 °C, Superdex75 on an FPLC, absorbance at 280 nm; oligomers against monomer; both purified. For orientation: SEC sorts molecules by how far they enter the pores of the column.
The target of assay [1] is BAK lacking its transmembrane domain (BAKΔTM), wild type (human) (UniProt Q16611). Nature of the assay: SEC; BAKΔTM incubated with BID BH3 peptide (known BAK activator); size exclusion chromatography, oligomers against monomer; conditions not shown (Supplementary Figs. S1c, S4); both purified.
Assay [2] has the same target. Nature of the assay: SEC; BAKΔTM without Eltro (DMSO control), CHAPS buffer, 1 h at 25 °C, Superdex75 on an FPLC, absorbance at 280 nm; oligomers against monomer; both purified.

B1: BAKΔTM F157A (domain or fragment, UniProt Q16611 16-186)
chain: EPALPSASEEQVAQDTEEVFRSYVFYRHQQEQEAEGVAAPADPEMVTLPLQPSSTMGQVGRQLAIIGDDINRRYDSEFQTMLQHLQPTAENAYEYFTKIATSLFESGINWGRVVALLGFGYRLALHVYQHGLTGFLGQVTRAVVDFMLHHCIARWIAQRGGWVAALNLGNG
Take B1: in the assay with BAKΔTM F157A (human), the binding entry was “binds”.

B2: BAKΔTM D160A (domain or fragment, UniProt Q16611 16-186)
chain: B1 chain with A142F, D145A
Turning to B2, the binding result with BAKΔTM D160A (human) is recorded as “binds”.

B3: BAKΔTM Y108A (domain or fragment, UniProt Q16611 16-186)
chain: B1 chain with Y93A, A142F
As to B3, the binding result with BAKΔTM Y108A (human) was “binds”.

B4: BAKΔTM R156A (domain or fragment, UniProt Q16611 16-186)
chain: B1 chain with R141A, A142F
For B4, the binding entry with BAKΔTM R156A (human) is on record as “binds”.

B5: BAKΔTM R156E (domain or fragment, UniProt Q16611 16-186)
chain: B1 chain with R141E, A142F
With B5, in the assay with BAKΔTM R156E (human), the binding entry is recorded as “binds”.

B6: BAKΔTM H165A (domain or fragment, UniProt Q16611 16-186)
chain: B1 chain with A142F, H150A
In the case of B6, the binding entry with BAKΔTM H165A (human) was “binds”.

B7: BAK lacking its transmembrane domain (BAKΔTM), wild type (domain or fragment, UniProt Q16611 16-186)
chain: B1 chain with A142F
B7: the binding entry in assay [1] was “binds”; in assay [2], “binds weakly”.
